# In patent publication US20240239801A1, “PYRIMIDO[5,4,D]PYRIMIDINE COMPOUNDS, COMPOSITIONS COMPRISING THEM AND USES THEREOF” (Université de Montréal, priority 2021, published 2024):
# Some entries share one result that the patent states for a list of compounds.
# System: HCT116 pERK
# Test: Phospho-ERK inhibition, AlphaLISA SureFire Ultra p-ERK 1/2
# Format: cell-based, human
# Details: FIG. 1; RAS-mutant HCT116 cells
# Experimental: All cancer cell lines (A375, A101D, A2058, RKO, HT29 SK-MEL 30, IPC298, HepG2, HCT-116, Lovo, SW620, SW480, NCI-H358, NCI-H2122, Calu-6, NCIH2087, NCIH1755, NCIH1666 and Mewo) were obtained from ATCC and cultured in RPMI-1640 medium (Gibco) supplemented with 5% heat inactivated fetal bovine serum (FBS, Wisent) at 37° C. under 5% CO2. Cells were maintained in T175 flasks (Greiner). They were passaged by removing the culture medium, washing once in 10 mL of room temperature Phosphate Buffered Saline (PBS; Wisent) and incubating at 37° C. with 2 mL of 0.05% Trypsin (Thermo-Fisher). […]
# After treatment, media was removed, and cells were lysed in 50 μL of 1× AlphaScreen Ultra Lysis Buffer (Perkin Elmer). […] After completion of the reactions, the signals were recorded on an EnVision plate reader (Perkin Elmer) using built in AlphaLISA® settings.
# The effect of each compound dilution on the pERK signal was expressed in % inhibition and calculated as follows. […]
# The ability of each compound to inhibit pERK signal was expressed as an IC50 value obtained by plotting the inhibition values for each data point of a dilution series and fitting the obtained curves using a log(agonist) versus response−variable slope (four parameters) function using GraphPadPrism (V7.0). […]
row,Compound,YMIN of pERK IC50 dose response curve
1,Nc1cccc2c1ncn2-c1ncc2ncnc(Nc3c(F)ccc(NS(=O)(=O)c4cccc(Cl)c4Cl)c3F)c2n1 [Example 80],> −20%
2,O=S(=O)(Nc1ccc(F)c(Nc2ncnc3cnc(-n4cnc5ccccc54)nc23)c1F)c1cccc(Cl)c1Cl [Example 81],> −20%
